PubChem BioAssay AID504847 (National Center for Advancing Translational Sciences (NCATS), 2011)
Several values for one entry are separate records, joined by “and”; a condition that tells them apart may be missing. Equal entries are not always repeated. About 3,700 (0.93%) of roughly 400,000 compounds were called active. The inconclusive results got no clear call from the source; some entries with a clear call stand among them for comparison. Calls come from the whole dose curve; as a rule, active = well fitted inhibition curve with a large enough effect; inconclusive = small, poorly fitted or top-dose-only effect, or another doubt; inactive = no such curve, though single readings can be large or run the other way. Potencies of inconclusive entries are doubtful fits and often do not repeat. Where a structure was tested more than once in an assay, its records may differ in their call.

By UniProt entry, the sequences of proteins in these tests, tags left out. Where a name states a change or a piece, a line headed by the entry shows the natural chain unless it says otherwise.
UniProt P11473: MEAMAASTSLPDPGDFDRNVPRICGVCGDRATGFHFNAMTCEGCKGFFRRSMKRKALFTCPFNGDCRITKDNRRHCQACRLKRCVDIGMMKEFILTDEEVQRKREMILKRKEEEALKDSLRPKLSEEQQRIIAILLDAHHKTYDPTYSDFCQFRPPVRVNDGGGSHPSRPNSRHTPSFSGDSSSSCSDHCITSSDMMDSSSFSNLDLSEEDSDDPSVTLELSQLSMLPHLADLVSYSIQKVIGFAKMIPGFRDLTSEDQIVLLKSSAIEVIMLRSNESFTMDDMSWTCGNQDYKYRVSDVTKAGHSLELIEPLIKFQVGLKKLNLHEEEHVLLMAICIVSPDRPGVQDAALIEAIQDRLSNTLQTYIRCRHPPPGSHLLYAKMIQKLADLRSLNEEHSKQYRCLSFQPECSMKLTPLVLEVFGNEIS

Target: Vitamin D3 receptor (Homo sapiens) (UniProt P11473)
Assay: Inhibitors of the vitamin D receptor (VDR): qHTS
Details: VDR-SRC2-3 peptide fluorescence polarization, 2 h; max response, negative = inhibition: hits give low values
In short: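 Signal is fluorescence polarization, reporting how far test compounds block the interaction of VDR with the SRC2-3 coregulator peptide after a 2 h room-temperature incubation.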
% is set by controls: 0 for no effect and ±100 for the full control effect; potency is the fitted concentration of half-maximal effect.

Max response, negative = inhibition, inactive:
O=C(NCc1ccc2c(c1)OCO2)c1ccc(Br)cc1 -13.6%, O=C(Nc1ccc(S(=O)(=O)N2CCCCC2)cc1)c1cccnc1Cl -17.5%, O=C(CN1CCCN(S(=O)(=O)c2ccc(F)cc2)CC1)Nc1c(Cl)cccc1Cl -9.5%, N#C/C(=C\c1ccc(Cl)cc1)C(=O)NC1CC1 -28.5%, COc1ccc(CC2(C)OC(c3ccc(C)cc3)=NN2C(C)=O)cc1 (centres undefined) 9.71%, Cc1ccc2[nH]c3c(c2c1)CCCC3NCCO (centres undefined) -16.2%, Clc1ccc(-c2c[n+]3c(n2-c2ccccc2)SCC3)cc1 -12.8%, Cc1ccc(NC(=O)c2ccc(=O)n(CC(=O)Nc3cc(C)cc(C)c3)n2)cc1 -1.67%, Cn1c(CNc2cccc(C(F)(F)F)c2)n[nH]c1=S -4.81%, S=C(Nc1ccc2nc(-c3ccccn3)c(-c3ccccn3)nc2c1)N1CCCCCC1 6%, CCN(CC)CCN(C(=O)c1ccc2c(c1)CCCC2)c1nc2c(C)cccc2s1 -10.3%, Cn1nc(-c2ccc(F)cc2)nc2c(=O)n(C)c(=O)nc1-2 -4.33%, O=C(Nc1cc(C(F)(F)F)ccc1N1CCOCC1)c1ccco1 4.6%, COc1ccc2[nH]c(=O)cc(C(=O)O)c2c1 -0.364%, CCc1nc2ccc(C(=O)NC3CCC(C)CC3)cc2nc1CC (centres undefined) -25.1%, O=c1c2sc3nc(N4CCOCC4)c4c(c3c2ncn1C(c1ccccc1)c1ccccc1)CCCC4 -13.4%

Potency, active:
CCCCC(=O)Nc1sc(C(=O)N(CC)CC)c(C)c1C(=O)OC 22.4 µM, N#CC1=C(S)N(c2ccccc2)C(c2ccc(-c3ccccc3Cl)o2)NC1=O (centres undefined) 39.8 µM, O=[N+]([O-])c1c(NCCCO)cc(Sc2nc3ccccc3s2)c2nonc12 15.8 µM, CCOC(=O)C(=Cc1ccc(Br)cc1)C(=O)OCC 10 µM, Oc1ccc(C2CNCc3sccc32)cc1O (centres undefined) 12.6 µM

Potency, inconclusive:
Cc1cc(C)c(Nc2cc(S(=O)(=O)O)c(N)c3c2C(=O)c2ccccc2C3=O)c(C)c1 100 µM [inhibitor, single point], CC1(C)Cc2nc3sc(C(N)=O)c(N)c3cc2CO1 6.31 µM [inhibitor, partial curve, poor fit], CC(=O)Nc1ccc(/C=C/C(=O)c2ccc3c(c2)OCCO3)cc1 15.8 µM [inhibitor, full curve, poor fit], CN[C@H]1CCc2cc(OC)c(OC)c(OC)c2-c2ccc(N[C@@H]3CCCCNC3=O)c(=O)cc21 89.1 µM [inhibitor, partial curve, poor fit], CCn1c(COc2ccc(C)cc2)nnc1SCC(=O)NCc1ccco1 70.8 µM [inhibitor, single point], COc1cc(C(c2c(C)[nH][nH]c2=O)c2c(C)[nH][nH]c2=O)ccc1OC(=O)c1ccccc1F 31.6 µM [inhibitor, partial curve, poor fit], CCCCn1c2c(c3ccccc31)CCc1nonc1-2 100 µM [inhibitor, single point], COCCNC(=O)c1c(N)n(CCC2=CCCCC2)c2nc3ccccc3nc12 79.4 µM [inhibitor, partial curve], CCC(=O)Nc1ccc(Cl)c(NC(=O)c2ccc([N+](=O)[O-])cc2)c1 35.5 µM [inhibitor, single point], C#CCNCCS(=O)(=O)N(Cc1ccc(Br)cc1)[C@@H](CC(C)C)C(=O)O 44.7 µM [inhibitor, partial curve, poor fit], CCOC(=O)C1=C(C)NC(SCC(=O)OC)=C(C#N)C1c1ccc(C(=O)OC)cc1 (centres undefined) 89.1 µM [inhibitor, single point], Cc1cc(Cl)ccc1NNC(=O)c1c(C)noc1C 79.4 µM [inhibitor, partial curve, poor fit], CCOC(=O)c1sc(NC(=O)/C=C/c2cnn(CC)c2C)c(C(=O)OCC)c1C 89.1 µM [inhibitor, single point], CC1CCN(C(=O)C(C)OC(=O)CSc2ccc([N+](=O)[O-])cc2)CC1 (centres undefined) 89.1 µM [inhibitor, single point], O=C1C(Nc2cccc(O)c2)=C(N2CCCCC2)C(=O)c2ccccc21 79.4 µM [inhibitor, partial curve], Cc1cccc(COc2ccc(/C=N/NC(=O)c3nnn(-c4nonc4N)c3C)cc2)c1 25.1 µM [inhibitor, single point], COC(=O)c1cc2occc2n1Cc1nc(-c2ccc(Cl)cc2)oc1C 70.8 µM [inhibitor, single point] and 89.1 µM [inhibitor, single point], O=C(NCc1ccccc1)C1=C[C@@H](C2CCCCC2)C[C@@H](OCc2ccc(CO)cc2)O1 50.1 µM [inhibitor, partial curve, poor fit], Cc1ccnc(SCc2cc(=O)c(OC(=O)c3ccc(S(=O)(=O)N4CCCC4)cc3)co2)n1 89.1 µM [inhibitor, single point], Cc1cc2c(cc(C(=O)OCC(=O)NC3CCCCC3)n2C)o1 89.1 µM [inhibitor, partial curve, poor fit], Cc1cnc(C=NNC(N)=S)c2cccc(N)c12 56.2 µM [inhibitor, partial curve, poor fit], CSc1ccccc1NC(=O)c1ccc([N+](=O)[O-])cc1 89.1 µM [inhibitor, single point], N[C@H](CSC(c1ccccc1)(c1ccccc1)c1ccccc1)C(=O)O 44.7 µM [inhibitor, partial curve]
